Assay results reported in patent US20210003577A1 (MAYO FOUNDATION FOR MEDICAL EDUCATION AND RESEARCH, published 2021).
These are yes or no findings as the source states them, for the method shown. In cells and extracts the contact can be indirect. Some results given as binding are weak or reduced against the parent protein; the word gives no strength. For some assays here: Where a sequence is shown, tags or fusion partners need not be part of it.

What was measured:
[1] = target: endogenous TET2 in C4-2CON and C4-2ENZ-R cells (human), Q6N021; test: co-immunoprecipitation of endogenous proteins, C4-2CON and C4-2ENZ-R cells; settings: remark: other sources report otherwise
[2] = target: V5-tagged TET2 purified from sf9 insect cells (UniProt Q6N021); test: in vitro His-tag pulldown (Ni-NTA), His-CXXC5 with V5-TET2

| binding [1] | binding [2] | Binder |
| --- | --- | --- |
| binds | – | endogenous AR in C4-2CON and C4-2ENZ-R cells (receptor, human, UniProt P10275 1-920, looked up, also called androgen receptor; ARFL) MEVQLGLGRVYPRPPSKTYRGAFQNLFQSVREVIQNPGPRHPEAASAAPPGASLLLLQQQQQQQQQQQQQQQQQQQQQQQETSPRQQQQQQGEDGSPQAHRRGPTGYLVLDEEQQPSQPQSALECHPERGCVPEPGAAVAASKGLPQQLPAPPDEDDSAAPSTLSLLGPTFPGLSSCSADLKDILSEASTMQLLQQQQQEAVSEGSSSGRAREASGAPTSSKDNYLGGTSTISDNAKELCKAVSVSMGLGVEALEHLSPGEQLRGDCMYAPLLGVPPAVRPTPCAPLAECKGSLLDDSAGKSTEDTAEYSPFKGGYTKGLEGESLGCSGSAAAGSSGTLELPSTLSLYKSGALDEAAAYQSRDYYNFPLALAGPPPPPPPPHPHARIKLENPLDYGSAWAAAAAQCRYGDLASLHGAGAAGPGSGSPSAAASSSWHTLFTAEEGQLYGPCGGGGGGGGGGGGGGGGGGGGGGGEAGAVAPYGYTRPPQGLAGQESDFTAPDVWYPGGMVSRVPYPSPTCVKSEMGPWMDSYSGPYGDMRLETARDHVLPIDYYFPPQKTCLICGDEASGCHYGALTCGSCKVFFKRAAEGKQKYLCASRNDCTIDKFRRKNCPSCRLRKCYEAGMTLGARKLKKLGNLKLQEEGEASSTTSPTEETTQKLTVSHIEGYECQPIFLNVLEAIEPGVVCAGHDNNQPDSFAALLSSLNELGERQLVHVVKWAKALPGFRNLHVDDQMAVIQYSWMGLMVFAMGWRSFTNVNSRMLYFAPDLVFNEYRMHKSRMYSQCVRMRHLSQEFGWLQITPQEFLCMKALLLFSIIPVDGLKNQKFFDELRMNYIKELDRIIACKRKNPTSCSRRFYQLTKLLDSVQPIARELHQFTFDLLIKSHMVSVDFPEMMAEIISVQVPKILSGKVKPIYFHTQ |
| – | binds | His-tagged CXXC5 purified from E. coli (protein, UniProt Q7LFL8 1-322, looked up, not shown: small tags and cut ends) MSSLGGGSQDAGGSSSSSTNGSGGSGSSGPKAGAADKSAVVAAAAPASVADDTPPPERRNKSGIISEPLNKSLRRSRPLSHYSSFGSSGGSGGGSMMGGESADKATAAAAAASLLANGHDLAAAMAVDKSNPTSKHKSGAVASLLSKAERATELAAEGQLTLQQFAQSTEMLKRVVQEHLPLMSEAGAGLPDMEAVAGAEALNGQSDFPYLGAFPINPGLFIMTPAGVFLAESALHMAGLAEYPMQGELASAISSGKKKRKRCGMCAPCRRRINCEQCSSCRNRKTGHQICKFRKCEELKKKPSAALEKVMLPTGAAFRWFQ |
